“And” between values parts separate entries of the source, which are not always exact repeats. Equal entries are not always repeated.
System: HeLa cells
Assay: Cell staining experiment, confocal microscopy
Assay type: cell-based
Settings: for Staining of cells (what was stained): 37° C.
[1] = 10 mM, 24 hours, per-pixel spectra fitted

| SMILES | Staining of cells (what was stained) (10 mM aqueous solution with 0.1% dimethyl sulfoxide, 24 hours) | Emission maximum of luminescence, cytoplasm [1] [nm] | Emission maximum of luminescence, many portions in the cytoplasm [1] [nm] | Emission maximum of luminescence, portions around the surfaces of the cells [1] [nm] | Staining of cells (what was stained) (100 nM aqueous solution with 0.001% dimethyl sulfoxide, one hour) | Emission maximum wavelengths of the two fitted fluorescence spectra in stained cells (100 nM, one hour, per-pixel spectra fitted) |
| --- | --- | --- | --- | --- | --- | --- |
| O=P1(c2ccccc2)C(c2ccc(N(c3ccccc3)c3ccccc3)cc2)=C(c2ccccc2)c2ccccc21 (stereo not drawn) [Compound 1, 2-[4-(N,N-diphenylamino)phenyl]-1,3-diphenylbenzo[b]phosphole-P-oxide] | the entire cell compartments except nuclei were stained | 565 | 550 | 530 |  |  |
| CN(C)c1ccc(C2=Cc3ccccc3P2(=O)c2ccccc2)cc1 (stereo not drawn) [Compound 3, 2-[4-(N,N-dimethylamino)phenyl]-1-phenylbenzo[b]phosphole-P-oxide] |  |  |  |  | the entirety of the cells except nuclei was stained | 520 nm and 570 nm |
